# Reference: patent publication EP0786470A1, “PEPTIDE COMPOUND” (SEIKAGAKU KOGYO KABUSHIKI KAISHA, priority 1993, dated 1997)
# Tested on: Wistar rats
# Conditions: intracerebral administration alone; site not specified
smiles,measurement,value
NCCCC(=O)O [γ-aminobutyric acid],"dose required to obtain the inhibition effect, in comparison with the dose of the peptide compound of the present invention",≥ 80 times
